Square brackets hold non-standard residues; d marks the D form. * marks the point of attachment. Fmoc = O=C(OCC1c2ccccc2-c2ccccc21)*; Boc = CC(C)(C)OC(=O)*; OtBu = CC(C)(C)O*; βAla = NCCC(=O)O; tBu = CC(C)(C)*

The data set can be described thus: general procedure: Fmoc solid-phase peptide synthesis; Fmoc-Leu-Wang (0.7 mmol/g); Fmoc-TMSAla-2-CTC (0.8 mmol/g); Fmoc-Leu Rink amide (0.4208 mmol/g); Fmoc-Pro-2-CTC (0.68 mm); HATU/DIPEA.

The substance “Fmoc-E(OMe)[βAla]K(Boc)K(Boc)PY(tBu)IL-OtBu” yielded a step yield (coupling step) of 31%. On to Fmoc-E[βAla]K(Boc)K(Boc)PY(tBu)IL-OtBu, for which the step yield (late stage modification step) is 52%.

For the origin of these results see PMC12058244 (Chemmedchem, 2025).
